Patent US20070066803A1
No constants are given. Whether binding was seen depends on the method and setting. In cells and extracts the contact can be indirect. Some results given as binding are weak or reduced against the parent protein; the word gives no strength. Where a sequence is shown, tags or fusion partners need not be part of it.

Amino acid sequences for entries named in this document (tags omitted). Residues count along the entry.
UniProt P35222, residues 2-781: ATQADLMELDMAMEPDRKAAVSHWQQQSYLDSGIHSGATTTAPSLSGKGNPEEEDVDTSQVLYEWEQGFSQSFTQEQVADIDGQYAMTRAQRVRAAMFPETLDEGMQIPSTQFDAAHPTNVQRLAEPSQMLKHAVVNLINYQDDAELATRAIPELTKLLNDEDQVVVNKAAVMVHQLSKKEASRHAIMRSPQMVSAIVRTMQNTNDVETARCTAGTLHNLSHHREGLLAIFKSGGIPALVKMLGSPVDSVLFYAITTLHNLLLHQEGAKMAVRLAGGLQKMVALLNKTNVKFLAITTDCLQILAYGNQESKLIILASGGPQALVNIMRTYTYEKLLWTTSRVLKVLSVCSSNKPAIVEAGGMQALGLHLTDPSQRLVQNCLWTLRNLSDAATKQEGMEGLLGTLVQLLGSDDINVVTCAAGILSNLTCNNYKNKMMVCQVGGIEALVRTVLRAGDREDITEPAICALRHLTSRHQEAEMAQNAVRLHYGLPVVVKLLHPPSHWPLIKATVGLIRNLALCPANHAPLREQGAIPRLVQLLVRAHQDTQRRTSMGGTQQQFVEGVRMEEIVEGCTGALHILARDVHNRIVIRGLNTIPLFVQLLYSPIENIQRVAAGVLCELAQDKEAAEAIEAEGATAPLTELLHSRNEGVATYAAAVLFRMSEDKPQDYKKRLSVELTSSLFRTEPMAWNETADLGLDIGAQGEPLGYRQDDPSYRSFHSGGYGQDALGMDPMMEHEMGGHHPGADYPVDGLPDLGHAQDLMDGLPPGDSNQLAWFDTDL

Key:
[1] = molecular target: T1, p120ctn isoform 3A (human) (UniProt O60716); assay: co-immunoprecipitation with anti-Myc 9E10 or anti-p120ctn pp120, Western blot
T1 sequence (looked up): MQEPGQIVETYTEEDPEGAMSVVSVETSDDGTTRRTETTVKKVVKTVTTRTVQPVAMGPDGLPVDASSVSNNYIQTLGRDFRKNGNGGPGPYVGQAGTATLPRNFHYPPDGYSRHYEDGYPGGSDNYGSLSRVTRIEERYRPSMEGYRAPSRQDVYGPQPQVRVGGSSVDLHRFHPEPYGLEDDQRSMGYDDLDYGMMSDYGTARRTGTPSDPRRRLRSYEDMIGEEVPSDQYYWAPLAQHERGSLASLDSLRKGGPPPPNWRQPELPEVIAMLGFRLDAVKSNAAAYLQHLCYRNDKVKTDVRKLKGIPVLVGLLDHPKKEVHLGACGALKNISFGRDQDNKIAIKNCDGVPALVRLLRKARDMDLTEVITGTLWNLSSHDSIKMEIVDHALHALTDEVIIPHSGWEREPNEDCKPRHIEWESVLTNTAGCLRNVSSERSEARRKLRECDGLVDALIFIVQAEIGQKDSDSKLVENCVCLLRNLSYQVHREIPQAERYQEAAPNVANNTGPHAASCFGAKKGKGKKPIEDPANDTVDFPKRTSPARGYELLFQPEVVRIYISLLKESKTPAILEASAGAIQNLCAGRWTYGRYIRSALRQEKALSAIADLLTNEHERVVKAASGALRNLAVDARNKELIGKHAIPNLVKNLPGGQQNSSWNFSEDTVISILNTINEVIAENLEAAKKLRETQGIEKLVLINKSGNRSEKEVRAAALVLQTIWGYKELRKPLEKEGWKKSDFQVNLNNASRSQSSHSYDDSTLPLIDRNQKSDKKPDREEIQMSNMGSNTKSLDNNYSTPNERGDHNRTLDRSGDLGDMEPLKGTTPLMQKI

[2] = molecular target: β-catenin (human) (UniProt P35222); assay: co-immunoprecipitation with anti-Myc 9E10 or polyclonal anti-β-catenin, Western blot
[3] = molecular target: T1, p120ctn isoform 3A (human); assay: co-immunoprecipitation from cell lysates (MDCK-Tetoff-hECRep1a -Tet; HEK-293T cotransfected), Western blot
[4] = molecular target: β-catenin (human) (UniProt P35222); assay: as above

Measured: binding

B1: Myc-tagged full-length human hECRep1a (protein, not shown: small tags and cut ends)
chain: MEAFPWAPRSPRRGRAPPPMALVPSARYVSAPGPAHPQPFSSWNDYLGLATLITKAVDGEPRFGCARGGNGGGGSPPSSSSSSCCSPHTGAGPGALGPALGPPDYDEDDDDDSDEPGSRGRYLGSALELRALELCAGPAEAGLLEERFAELSPFAGRAAAVLLGCAPAAAAAATTTSEATPREERAPAWAAEPRLHAASGAAAARLLKPELQVCVFCRNNKEAMALYTTHILKGPDGRVLCPVLRRYTCPLCGASGDNAHTIKYCPLSKVPPPPARPPPRSARDGPPGKKLR
binds: all assays above
